Data taken from ChEMBL document CHEMBL3988442, “University of Dundee, Small-Polar-MMV Screening Library” (2021).

Protein sequences, listed by entry. Tags and fused reporters are not part of them.
UniProt E9BF75, entry or part of it: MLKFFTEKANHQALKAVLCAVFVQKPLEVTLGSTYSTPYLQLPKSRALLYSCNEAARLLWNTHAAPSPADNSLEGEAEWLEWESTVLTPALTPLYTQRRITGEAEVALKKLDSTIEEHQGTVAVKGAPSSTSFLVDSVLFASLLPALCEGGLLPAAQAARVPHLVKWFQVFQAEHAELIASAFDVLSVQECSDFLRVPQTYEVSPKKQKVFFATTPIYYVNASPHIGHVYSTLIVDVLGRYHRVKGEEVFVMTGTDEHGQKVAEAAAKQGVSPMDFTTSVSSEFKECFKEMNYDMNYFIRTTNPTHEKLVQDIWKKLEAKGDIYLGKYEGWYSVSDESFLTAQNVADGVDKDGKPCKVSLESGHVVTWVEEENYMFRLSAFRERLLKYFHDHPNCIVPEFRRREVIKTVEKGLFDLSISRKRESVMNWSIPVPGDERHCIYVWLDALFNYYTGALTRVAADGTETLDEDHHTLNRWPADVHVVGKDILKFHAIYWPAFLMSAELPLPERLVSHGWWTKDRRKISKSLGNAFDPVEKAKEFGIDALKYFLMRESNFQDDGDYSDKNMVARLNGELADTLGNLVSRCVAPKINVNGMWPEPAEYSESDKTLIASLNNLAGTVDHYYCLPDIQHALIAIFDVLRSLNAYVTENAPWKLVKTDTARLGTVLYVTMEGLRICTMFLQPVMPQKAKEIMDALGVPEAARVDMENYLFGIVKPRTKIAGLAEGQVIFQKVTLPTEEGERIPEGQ

All values are in %. The controls that fix the scale are not given in the record; negative values are as filed. Compounds were drawn at random from those tested, without regard to their results. A dash means the value is not listed here; it may have been measured.

LdMetRS: 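Methionyl-tRNA synthetase (putative), Leishmania donovani (UniProt E9BF75). Primary screen of methionyl-tRNA synthetase; the read-out is not stated. The test concentration is not given. Values are per cent inhibition. Of about 68,000 compounds tested this way, about 24 (0.035%) reached 50% or more in at least one test.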
Mtb heat-shock: 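Assay on Mycobacterium tuberculosis, filed only as a heat shock assay from Cornell; the read-out is not stated. The concentration is filed as 10 mM, unlikely as a test dose, so the dose is not known. Higher reads as stronger inhibition (inferred: compounds with an IC50 in retests scored well above the rest). Of about 69,000 compounds tested this way, about 930 (1.4%) reached 50% or more in at least one test.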

Compound,LdMetRS,Mtb heat-shock
CCc1ncc2c(n1)CN(C(=O)COC)C2,8.374,-15.44
CS(=O)(=O)NC(=O)c1cnc2c(cnn2C2CCCC2)c1,8.696,14.74
O=C(C1CCOCC1)N1CCOC(CC2CCCCC2)C1 (centres undefined),11.94,-12.17
Cc1noc(CN(Cc2ccc3c(c2)OCO3)C2CCCC2)n1,12.42,3.128
CCc1ccc(S(=O)(=O)Nc2cnc(N3CCOCC3)nc2)cc1,10.56,12.61
[H][C@]12CC[C@]([H])(CN(C(C)=O)C1)N(Cc1ccc(Cn3cccn3)cc1)C2,-,18.94
c1ccc(OCc2noc(CN3CCC(N4CCSCC4)CC3)n2)cc1,6.948,6.188
CCc1noc(CNc2c(F)cccc2-n2cccn2)n1,4.12,-3.038
c1ccc(C2=NOC3(CCN(Cc4c[nH]c5ccccc45)CC3)C2)cc1,6.857,16.8
Cn1cnc2c1CCN(Cc1ccc(C(=O)N3CCCC3)cc1)C2,3.067,23.21
Cn1nc(COCC2CC2)c2c1CN(CC1CC1)CC2,10.93,-
Cc1cccc(C2CCN(S(=O)(=O)c3cn(C)cn3)CC2)n1,10.29,-4.397
CC(=O)N1CCC(NC(=O)Cc2nc3nc(C)cc(C)n3n2)CC1,23.2,6.673
COC(=O)NCCC(=O)NCC1(c2cccc(Cl)c2)CC1,17.42,15.57
CSCC(C)(O)CNc1cccc(F)c1C#N (centres undefined),9.924,-3.628
COC(=O)C1CCN(C(=O)c2nnc3ccc(Cl)cc3n2)CC1,8.877,26.61
Cc1cc(N(C)CCOc2ccccc2F)nc(N)n1,11.63,-0.1029
Cn1c(=O)oc2ccc(S(=O)(=O)N3CCC(c4ccccc4)C3)cc21 (centres undefined),-7.735,-28.41
CC(Nc1nccc(CCC(F)(F)F)n1)c1nc(-c2ccccn2)no1 (centres undefined),20.41,-3.97
CCCc1nnc(N2CCCC(c3nnc(Cn4ccnc4)n3C)C2)s1 (centres undefined),2.847,2.081
CCCN1CCN(C(=O)c2ccc(Cn3cc(Br)cn3)cc2)CC1,14.29,-16.85
c1cnc(Nc2cncc(C3CCCN3)n2)cn1 (centres undefined),12.26,-
O=C(O)C(F)(F)F.O=C(O)C(F)(F)F.[H][C@]12C[C@@H](Cn3cncn3)N(c3nccs3)[C@@]1([H])CCN(C(C)C)C2,-,35.66
CC(C)(CNc1cn[nH]c(=O)c1Cl)c1ccc2c(c1)OCO2,2.957,-6.218
O=C(c1ccc(Cl)cc1)N1CCC(N2CCOC2=O)CC1,12,5.606
[H][C@]12CC[C@]([H])(CN(S(=O)(=O)c3cccc(Cl)c3C)C1)N(C)C2=O,-,-18.96
CNC(=O)c1noc(CN2CC[C@](C)(O)[C@H](C)C2)n1,4.181,-5.678
CCc1nn(C)c(Cl)c1CN(CC)Cc1cnn(CC)c1,12.61,8.719
Cc1cnc(N2CCCC(O)C2)nc1-c1ccnn1C (centres undefined),3.377,-13.48
Cc1csc(N2CCN(C3CCc4ccccc4C3)CC2)n1 (centres undefined),11.68,3.823
O=C(O)C(F)(F)F.O=C(c1ccoc1)N1CCCC2(CCC(=O)N2Cc2ccncc2)C1 (centres undefined),-,-19.94
COCCN(Cc1nc2c(cnn2C)c(=O)[nH]1)C(C)COC (centres undefined),19.7,15.99
O=C(c1cnccn1)N1CCOCC2(CCN(C3CCOCC3)C2)C1 (centres undefined),12.86,-
O=C(C1CCCO1)N1CCC(Cn2cc(C3CCCC3)nn2)CC1 (centres undefined),17.93,-9.391
CC(C)c1noc(CN(C)C(=O)c2ncn[nH]2)n1,4.381,-12.96
CCc1nnc2n1CCN(Cc1cc(Cl)c3c(c1)OCCCO3)C2,13.65,23.24
[H][C@@]12CCN(C(=O)Cc3ccsc3)C[C@@]1([H])O[C@H](c1noc(C)n1)C2,-,-0.3473
O=C(C1SCCc2sccc21)N1CCN(CC(F)F)CC1 (centres undefined),22.53,-39.55
CC(C(=O)Nc1ccc(N2CCCCC2)nc1)n1ccnc1 (centres undefined),10,-14.86
Cc1noc(C)c1CN1C(=O)[C@H]2CC[C@@H]1CN(Cc1ncc[nH]1)C2,13.11,-
O=c1cc(N2CCCCC2)cnn1CC(O)C(F)(F)F (centres undefined),16.91,22.65
CC(C)n1cc(CN2CCCN(C(=O)COC3CCCC3)CC2)cn1,16.11,-15.17
Nc1ncccc1C(=O)NCc1cccc(Br)c1,1.143,-18.26
Cc1nc(Nc2nncs2)cc(C2CNC2)n1.O=C(O)C(F)(F)F,-,1.891
CCOc1cccc(CNc2ccccc2C(=O)OC)c1O,8.714,3.45
CCn1c(CN2CCN(CCOC)CC2)nc2c(F)cccc21,21.86,36.7
CN(CCc1ccccn1)CCc1nccs1,3.672,-11.89
O=C(NCCc1nncn1C1CC1)c1cc2ccccn2c1,12.18,-11.76
Cc1occc1C(=O)NCC(=O)NCCCOc1ccc(F)cc1,15.47,5.919
Cc1cncc(C(=O)N2CC[C@@H]3[C@H]2CCC(=O)N3CCN(C)C)c1,13.04,-

Once more, the final 6:

{"compound": "CCOc1cccc(CNc2ccccc2C(=O)OC)c1O", "LdMetRS": 8.714, "Mtb heat-shock": 3.45}
{"compound": "CCn1c(CN2CCN(CCOC)CC2)nc2c(F)cccc21", "LdMetRS": 21.86, "Mtb heat-shock": 36.7}
{"compound": "CN(CCc1ccccn1)CCc1nccs1", "LdMetRS": 3.672, "Mtb heat-shock": -11.89}
{"compound": "O=C(NCCc1nncn1C1CC1)c1cc2ccccn2c1", "LdMetRS": 12.18, "Mtb heat-shock": -11.76}
{"compound": "Cc1occc1C(=O)NCC(=O)NCCCOc1ccc(F)cc1", "LdMetRS": 15.47, "Mtb heat-shock": 5.919}
{"compound": "Cc1cncc(C(=O)N2CC[C@@H]3[C@H]2CCC(=O)N3CCN(C)C)c1", "LdMetRS": 13.04}